The source of these data is article PMC12847834.

By UniProt entry, the sequences of proteins in these tests, tags left out.
UniProt Q93009: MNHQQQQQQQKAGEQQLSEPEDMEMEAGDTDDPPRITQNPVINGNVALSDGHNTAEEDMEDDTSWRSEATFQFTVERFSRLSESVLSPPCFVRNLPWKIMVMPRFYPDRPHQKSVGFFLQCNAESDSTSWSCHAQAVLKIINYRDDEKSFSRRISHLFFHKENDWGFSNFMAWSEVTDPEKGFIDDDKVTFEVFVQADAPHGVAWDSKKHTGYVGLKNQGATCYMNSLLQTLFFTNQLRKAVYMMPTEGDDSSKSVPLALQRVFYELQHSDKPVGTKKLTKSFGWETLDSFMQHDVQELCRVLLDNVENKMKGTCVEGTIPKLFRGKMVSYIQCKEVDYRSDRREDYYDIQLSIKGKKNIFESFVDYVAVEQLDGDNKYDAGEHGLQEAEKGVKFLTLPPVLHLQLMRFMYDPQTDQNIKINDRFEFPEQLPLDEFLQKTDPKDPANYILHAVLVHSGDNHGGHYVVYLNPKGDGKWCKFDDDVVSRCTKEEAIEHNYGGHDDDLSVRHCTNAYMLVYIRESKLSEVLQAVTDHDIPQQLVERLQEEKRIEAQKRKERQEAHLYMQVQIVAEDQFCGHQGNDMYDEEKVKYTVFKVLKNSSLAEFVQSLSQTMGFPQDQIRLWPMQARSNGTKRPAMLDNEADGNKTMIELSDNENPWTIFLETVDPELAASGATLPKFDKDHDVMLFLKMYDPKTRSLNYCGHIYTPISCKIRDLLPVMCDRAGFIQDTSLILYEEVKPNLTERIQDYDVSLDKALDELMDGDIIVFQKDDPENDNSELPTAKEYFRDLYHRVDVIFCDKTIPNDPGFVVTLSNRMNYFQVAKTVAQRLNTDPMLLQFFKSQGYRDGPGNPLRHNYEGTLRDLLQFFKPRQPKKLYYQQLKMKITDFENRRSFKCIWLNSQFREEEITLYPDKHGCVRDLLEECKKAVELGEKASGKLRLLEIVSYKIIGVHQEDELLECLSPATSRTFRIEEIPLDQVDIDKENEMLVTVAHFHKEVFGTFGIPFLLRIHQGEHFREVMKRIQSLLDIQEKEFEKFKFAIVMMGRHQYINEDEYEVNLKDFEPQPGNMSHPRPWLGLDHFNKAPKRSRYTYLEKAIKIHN

These are yes or no findings as the source states them, for the method shown. Binding seen in cells or lysates may run through a third protein. Here binding means that the protein was enriched with, or labelled near, the bait; the list need not be complete. Where a sequence is shown, tags or fusion partners need not be part of it.

The target of the experiment is T1, Flag-KDM4A (full-length lysine demethylase 4A) (UniProt O75164).
T1 sequence: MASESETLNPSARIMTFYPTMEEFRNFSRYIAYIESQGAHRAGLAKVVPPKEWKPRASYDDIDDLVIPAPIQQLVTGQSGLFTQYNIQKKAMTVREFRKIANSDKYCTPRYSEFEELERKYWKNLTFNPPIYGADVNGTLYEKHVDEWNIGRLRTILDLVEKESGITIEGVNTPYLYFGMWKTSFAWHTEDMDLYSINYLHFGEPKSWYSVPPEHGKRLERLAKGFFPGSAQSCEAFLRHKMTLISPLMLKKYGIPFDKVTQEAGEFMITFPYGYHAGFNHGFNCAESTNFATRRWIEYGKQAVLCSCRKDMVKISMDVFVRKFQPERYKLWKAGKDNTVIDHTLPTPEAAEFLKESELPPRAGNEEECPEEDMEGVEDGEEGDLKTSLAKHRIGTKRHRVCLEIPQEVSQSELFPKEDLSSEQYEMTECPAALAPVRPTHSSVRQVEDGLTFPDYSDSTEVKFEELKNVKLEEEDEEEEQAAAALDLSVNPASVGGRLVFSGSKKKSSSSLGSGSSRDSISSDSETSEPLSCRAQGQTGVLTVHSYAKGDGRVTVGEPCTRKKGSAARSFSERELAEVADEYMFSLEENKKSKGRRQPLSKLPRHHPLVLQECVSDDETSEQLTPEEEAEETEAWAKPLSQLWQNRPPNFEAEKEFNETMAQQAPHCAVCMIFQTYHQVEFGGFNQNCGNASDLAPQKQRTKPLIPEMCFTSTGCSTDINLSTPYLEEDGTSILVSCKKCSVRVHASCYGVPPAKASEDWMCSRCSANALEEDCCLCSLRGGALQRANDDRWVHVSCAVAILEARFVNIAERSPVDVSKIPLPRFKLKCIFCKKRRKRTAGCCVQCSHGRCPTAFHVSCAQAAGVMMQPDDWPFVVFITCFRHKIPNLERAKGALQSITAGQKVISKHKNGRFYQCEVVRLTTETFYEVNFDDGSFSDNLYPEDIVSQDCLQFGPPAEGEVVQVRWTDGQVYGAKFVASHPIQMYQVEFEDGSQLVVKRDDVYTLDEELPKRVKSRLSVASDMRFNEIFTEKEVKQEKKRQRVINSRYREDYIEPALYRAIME
In words: affinity purification with mass spectrometry; Flag-KDM4A over-expressed in 293T cells; co-IP with Flag antibody with highly stringent wash steps; SDS-PAGE, silver staining, excised bands analysed by mass spectrometry.

Regarding “USP7 (ubiquitin-specific processing protease 7), endogenous (from UniProt Q93009 1-1102)”, the binding entry is given as “binds”.
